Laboratory results: patent publication US10253319B2, “miRNA modulators of thermogenesis” (AptamiR Therapeutics, Inc., priority 2012, dated 2019)
At least one structure is not confirmed: it was looked up by name or label, or the drawing left a doubt.

Experiments:
[1] = test system: human subcutaneous pre-adipocytes; assay: Pre-adipocyte differentiation into adipocytes, Oil Red O lipid staining; type: cell-based
[2] = test system: UCP1; assay: UCP1 mRNA expression change in pre-adipocytes, RNA-Seq (Table 14); type: cell-based, human; settings: rosiglitazone 100 nM renewed every other day; miRNA analogs 25 nM, one transfection 12 days before RNA extraction
[3] = test system: UCP2; assay: UCP2 mRNA expression change in pre-adipocytes, RNA-Seq (Table 14); type: cell-based, human; settings: rosiglitazone 100 nM; miRNA analogs 25 nM
[4] = test system: human adipocytes; assay: Mature adipocytes in culture, Oil Red O lipid staining; type: cell-based; settings: 30 days in culture
[5] = test system: human mature adipocytes; assay: Amount of lipids in mature adipocytes, Nile Red fluorescence; type: cell-based
[6] = 100 nM for 2 days followed by maintenance medium for 12 days

## CN(CCOc1ccc(CC2SC(=O)NC2=O)cc1)c1ccccn1 (centres unmarked) [rosiglitazone]
[1]; [6]
  differentiation into lipid-loaded mature adipocytes (Oil Red O): some differentiation into lipid-loaded mature adipocytes
[1]; 100 nM throughout the experiment, 15 days in culture
  differentiation into lipid-loaded mature adipocytes (Oil Red O): most of the cells became lipid-loaded mature adipocytes
[2]
  expression of UCP1 mRNA: significantly increased
[3]
  expression of UCP2 mRNA: dramatic increase
[4]; [6]
  appearance of lipid-loaded mature adipocytes (Oil Red O): little change in appearance
[4]; 100 nM throughout the experiment
  appearance of lipid-loaded mature adipocytes (Oil Red O): intensity of the red staining seems reduced
[5]; exposed for two days, measured Day 30
  amount of lipids, Nile Red fluorescence: fluorescence dropped significantly
[5]; present from Day 15 to Day 30, measured Day 30
  amount of lipids, Nile Red fluorescence: further reduced
